Taken from: PubChem BioAssay AID1259254 (NCATS, 2017)
Shown is one part, drawn at random, of about 59,000 reagents. Over the whole deposit, about 1,550 (2.6%) got an active call. 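G2 share is only a proxy for re-replication; each gene was hit by three separate siRNAs, and active genes were retested.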 Raw values are not corrected between plates. Unmarked entries are inactive. Reagents against one gene are numbered here. Reagent sequences are not shown. The record does not give: the amount of reagent.

- Purpose: 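Finding genes that stop cells copying their DNA twice in one cycle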 (primary screen)
- System: human HCT116 colorectal cancer cells
- Reagents: single siRNA against human genes
- Duration: 3 days
- Measured: 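Imaged Hoechst DNA stain sorts each cell into a cycle phase by DNA amount; per plate, G2 fraction set to 0% for non-targeting and 100% for GMNN siRNA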
- Reading the numbers: G2 robust z-score and G2 cells, % of GMNN control: higher = more G2 cells, more excess DNA replication; raw share of cells in G2: higher = larger share of cells with G2 DNA content
- Hit rule: 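Active siRNAs have a G2 robust z of 5 or more median absolute deviations over the median, which in these data means about 38% or higher of GMNN control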

gene symbol	reagent no.	G2 robust z-score	G2 cells, % of GMNN control	raw share of cells in G2 (%)
KIAA1549	1	-0.432	-0.0702	4.32
KIAA1549	2	-0.123	2.1	5.46
KIAA1549	3	-0.892	-3.31	1.98
THAP2 (THAP domain containing 2)	1	0.403	5.8	6.94
THAP2 (THAP domain containing 2)	2	-0.0803	2.4	5.06
THAP2 (THAP domain containing 2)	3	6.96 (active)	52	27.1
ARK2N (arkadia (RNF111) N-terminal like PKA signaling regulator 2N)	1	0.581	7.06	6.19
ARK2N (arkadia (RNF111) N-terminal like PKA signaling regulator 2N)	2	-0.104	2.24	3.6
ARK2N (arkadia (RNF111) N-terminal like PKA signaling regulator 2N)	3	1.04	10.3	6.64
HEATR5B (HEAT repeat containing 5B)	1	-0.978	-3.91	2.2
HEATR5B (HEAT repeat containing 5B)	2	-0.15	1.91	5.08
HEATR5B (HEAT repeat containing 5B)	3	2.16	18.2	9.2
XKR4 (XK related 4)	1	0.291	5.01	6.1
XKR4 (XK related 4)	2	0.236	4.63	4.71
XKR4 (XK related 4)	3	-0.711	-2.03	1.22
PRKCSH (PRKCSH beta subunit of glucosidase II)	1	-1.32	-6.3	3.53
PRKCSH (PRKCSH beta subunit of glucosidase II)	2	-0.355	0.472	5.57
PRKCSH (PRKCSH beta subunit of glucosidase II)	3	-1.01	-4.17	2.56
SQSTM1 (sequestosome 1)	1	0.00553	3.01	6.46
SQSTM1 (sequestosome 1)	2	1.84	15.9	10.2
SQSTM1 (sequestosome 1)	3	1.39	12.8	7.86
ALG10 (ALG10 alpha-1,2-glucosyltransferase)	1	-0.57	-1.04	3.64
ALG10 (ALG10 alpha-1,2-glucosyltransferase)	2	0.187	4.28	4.34
ALG10 (ALG10 alpha-1,2-glucosyltransferase)	3	0.512	6.57	5.01
SPPL2C (signal peptide peptidase like 2C)	1	0.584	7.08	8.59
SPPL2C (signal peptide peptidase like 2C)	2	7.57 (active)	56.2	23
SPPL2C (signal peptide peptidase like 2C)	3	-0.247	1.23	4.72
GTPBP2 (GTP binding protein 2)	1	-0.104	2.24	4.66
GTPBP2 (GTP binding protein 2)	2	0.0304	3.18	7.4
GTPBP2 (GTP binding protein 2)	3	0.0985	3.66	5.6
ACSBG1 (acyl-CoA synthetase bubblegum family member 1)	1	2.63	21.5	15
ACSBG1 (acyl-CoA synthetase bubblegum family member 1)	2	2.73	22.2	11.6
ACSBG1 (acyl-CoA synthetase bubblegum family member 1)	3	-0.0353	2.72	4.8
VIPAS39	1	-0.173	1.75	5.34
VIPAS39	2	-0.161	1.83	5.43
VIPAS39	3	-0.205	1.52	3.1
ACOXL (acyl-CoA oxidase like)	1	0.766	8.36	10.1
ACOXL (acyl-CoA oxidase like)	2	-0.392	0.206	4.51
ACOXL (acyl-CoA oxidase like)	3	-0.215	1.45	4.94
SYNGAP1 (synaptic Ras GTPase activating protein 1)	1	1.19	11.4	10.2
SYNGAP1 (synaptic Ras GTPase activating protein 1)	2	1.56	14	9.43
SYNGAP1 (synaptic Ras GTPase activating protein 1)	3	2.13	17.9	9.69
FGFBP2 (fibroblast growth factor binding protein 2)	1	-0.86	-3.08	3.08
FGFBP2 (fibroblast growth factor binding protein 2)	2	-0.333	0.622	3.64
FGFBP2 (fibroblast growth factor binding protein 2)	3	-0.489	-0.472	2.26
IGDCC3 (immunoglobulin superfamily DCC subclass member 3)	1	-1.49	-7.51	1.94
IGDCC3 (immunoglobulin superfamily DCC subclass member 3)	2	-0.267	1.09	4.4
IGDCC3 (immunoglobulin superfamily DCC subclass member 3)	3	0.721	8.04	6.33
IMPDH2 (inosine monophosphate dehydrogenase 2)	1	-1.68	-8.83	2.32
IMPDH2 (inosine monophosphate dehydrogenase 2)	2	2.4	19.9	11.5
IMPDH2 (inosine monophosphate dehydrogenase 2)	3	2.26	18.8	11.9
BOLL (boule RNA binding protein)	1	0.826	8.78	7.45
BOLL (boule RNA binding protein)	2	-0.796	-2.63	3.27
BOLL (boule RNA binding protein)	3	0.168	4.15	7.36
BEX3 (brain expressed X-linked 3)	1	1.16	11.1	6.76
BEX3 (brain expressed X-linked 3)	2	4.51	34.7	17.1
BEX3 (brain expressed X-linked 3)	3	-0.579	-1.11	4.13
TLK1 (tousled like kinase 1)	1	1.35	12.4	9.46
TLK1 (tousled like kinase 1)	2	0.244	4.69	6.89
TLK1 (tousled like kinase 1)	3	3.34	26.5	12.2
KRTAP13-2 (keratin associated protein 13-2)	1	0.409	5.85	6
KRTAP13-2 (keratin associated protein 13-2)	2	-0.313	0.765	3.59
KRTAP13-2 (keratin associated protein 13-2)	3	-0.653	-1.63	3.53
CARD18 (caspase recruitment domain family member 18)	1	-1.45	-7.25	1.78
CARD18 (caspase recruitment domain family member 18)	2	0.477	6.32	6.52
CARD18 (caspase recruitment domain family member 18)	3	-0.0349	2.72	6.77
C1orf174 (chromosome 1 open reading frame 174)	1	1.74	15.2	10.3
C1orf174 (chromosome 1 open reading frame 174)	2	-0.397	0.176	4.05
C1orf174 (chromosome 1 open reading frame 174)	3	-0.0493	2.62	4.41
FIGNL2 (fidgetin like 2)	1	1.09	10.7	7.68
FIGNL2 (fidgetin like 2)	2	-0.698	-1.94	2.75
FIGNL2 (fidgetin like 2)	3	-0.119	2.13	5.67
EFCAB13 (EF-hand calcium binding domain 13)	1	0.72	8.03	7.31
EFCAB13 (EF-hand calcium binding domain 13)	2	-0.0138	2.87	4.19
EFCAB13 (EF-hand calcium binding domain 13)	3	0.813	8.69	4.36
UBE2V1 (ubiquitin conjugating enzyme E2 V1)	1	2.35	19.5	11.5
UBE2V1 (ubiquitin conjugating enzyme E2 V1)	2	0.439	6.06	8.16
UBE2V1 (ubiquitin conjugating enzyme E2 V1)	3	4.43	34.1	15.7
SEC24A (SEC24 homolog A, COPII component)	1	1.98	16.9	9.3
SEC24A (SEC24 homolog A, COPII component)	2	0.273	4.89	8.41
SEC24A (SEC24 homolog A, COPII component)	3	-1.24	-5.74	3.2
MACC1 (MET transcriptional regulator MACC1)	1	-0.074	2.45	4.83
MACC1 (MET transcriptional regulator MACC1)	2	0.528	6.68	6.18
MACC1 (MET transcriptional regulator MACC1)	3	0.596	7.16	7.07
HNF1A (HNF1 homeobox A)	1	0.0326	3.2	6.08
HNF1A (HNF1 homeobox A)	2	0.993	9.96	8.48
HNF1A (HNF1 homeobox A)	3	8.42 (active)	62.2	24.8

6 neighbouring reagents already listed:
gene symbol	reagent no.	G2 robust z-score	G2 cells, % of GMNN control	raw share of cells in G2 (%)
XKR4 (XK related 4)	1	0.291	5.01	6.1
XKR4 (XK related 4)	2	0.236	4.63	4.71
XKR4 (XK related 4)	3	-0.711	-2.03	1.22
PRKCSH (PRKCSH beta subunit of glucosidase II)	1	-1.32	-6.3	3.53
PRKCSH (PRKCSH beta subunit of glucosidase II)	2	-0.355	0.472	5.57
PRKCSH (PRKCSH beta subunit of glucosidase II)	3	-1.01	-4.17	2.56
